# Some of the results follow.
# B1: CD4 (Rattus norvegicus), P05540 (protein)
# chain: MCRGFSFRHLLPLLLLQLSKLLVVTQGSTSITAYKSEGESAEFSFPLNLGEESLQGELRWKAEKAPSSQSWITFSLKNQKVSVQKSTSNPKFQLSETLPLTLQIPQVSLQFAGSGNLTLTLDRGILYQEVNLVVMKVTQPDSNTLTCEVMGPTSPKMRLILKQENQEARVSRQEKVIQVQAPEAGVWQCLLSEGEEVKMDSKIQVLSKGLNSGGGSGGGTGGGDLAPQMLRELQETNAALQDVRELLRQQVKEITFLKNTVMECDACGLDRNLPPLAPLGPHPETLVKVKDAEDQLGARVGYIELDLNSGKILESFRPEERFPMMSTFKVLLCGAVLSRIDAGQEQLGRRIHYSQNDLVEYSPVTEKHLTDGMTVRELCSAAITMSDNTAANLLLTTIGGPKELTAFLHNMGDHVTRLDRWEPELNEAIPNDERDTTMPVAMATTLRKLLTGELLTLASRQQLIDWMEADKVAGPLLRSALPAGWFIADKSGAGERGSRGIIAALGPDGKPSRIVVIYTTGSQATMDERNRQIAEIGASLIKHW
# Experiments:
# Experiment in all cases: glycan array binding signal (z-score within array); higher = stronger binding
# Details in all cases: glycan notation: IUPAC condensed, linker removed
# [1] = target: Neu5Ac(a2-3)Gal(b1-3)[Fuc(a1-4)]GlcNAc
# Summary of the method: (§1)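 Glycan array data were curated from 3228 arrays in the Consortium for Functional Glycomics database and kept only where the protein sequence was available. Glycan names were converted to IUPAC-condensed notation, and columns mapping to the same glycan were averaged. The binding signal is a within-array Z-score, averaged across arrays of the same protein sequence at different concentrations or buffers and across linkers. Negative Z-scores can be read as non-binding.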
# [2] = target: Neu5Ac(a2-3)Gal(b1-3)[Fuc(a1-4)]GlcNAc(b1-3)Gal(b1-3)[Fuc(a1-4)]GlcNAc
# Summary of the method: as §1
# [3] = target: Neu5Ac(a2-3)Gal(b1-3)[Fuc(a1-4)]GlcNAc(b1-3)Gal(b1-4)[Fuc(a1-3)]GlcNAc
# Summary of the method: as §1
# [4] = target: Neu5Ac(a2-3)Gal(b1-3)[GlcNAc(b1-6)]GalNAc
# Summary of the method: as §1
# [5] = target: Neu5Ac(a2-3)Gal(b1-3)[Neu5Ac(a2-6)]GalNAc
# Summary of the method: as §1
# [6] = target: Neu5Ac(a2-3)Gal(b1-3)[Neu5Ac(a2-6)]GlcNAc(b1-3)[Fuc(a1-3)[Gal(b1-4)]GlcNAc(b1-6)]Gal(b1-4)Glc
# Summary of the method: as §1
# [7] = target: Neu5Ac(a2-3)Gal(b1-3)]Neu5Ac(a2-3)Gal(b1-4)]GlcNAc
# Summary of the method: as §1
# Neu5Ac(a2-3)Gal(b1-4)Glc = target: Neu5Ac(a2-3)Gal(b1-4)Glc
# Summary of the method: as §1
# [8] = target: Neu5Ac(a2-3)Gal(b1-4)GlcNAc
# Summary of the method: as §1
# [9] = target: Neu5Ac(a2-3)Gal(b1-4)GlcNAc(b1-2)Man
# Summary of the method: as §1
# [10] = target: Neu5Ac(a2-3)Gal(b1-4)GlcNAc(b1-2)Man(a1-3)[GlcNAc(b1-4)][Neu5Ac(a2-3)Gal(b1-4)GlcNAc(b1-2)Man(a1-6)]Man(b1-4)GlcNAc(b1-4)GlcNAc
# Summary of the method: as §1
# [11] = target: Neu5Ac(a2-3)Gal(b1-4)GlcNAc(b1-2)Man(a1-3)[Neu5Ac(a2-3)Gal(b1-4)GlcNAc(b1-2)Man(a1-6)]Man(b1-4)GlcNAc(b1-4)GlcNAc
# Summary of the method: as §1
# [12] = target: Neu5Ac(a2-3)Gal(b1-4)GlcNAc(b1-2)Man(a1-3)[Neu5Ac(a2-3)Gal(b1-4)GlcNAc(b1-2)Man(a1-6)]Man(b1-4)GlcNAc(b1-4)[Fuc(a1-6)]GlcNAc
# Summary of the method: as §1
# [13] = target: Neu5Ac(a2-3)Gal(b1-4)GlcNAc(b1-2)Man(a1-3)[Neu5Ac(a2-6)Gal(b1-4)GlcNAc(b1-2)Man(a1-6)]Man(b1-4)GlcNAc(b1-4)GlcNAc
# Summary of the method: as §1
# [14] = target: Neu5Ac(a2-3)Gal(b1-4)GlcNAc(b1-2)[Neu5Ac(a2-3)Gal(b1-4)GlcNAc(b1-4)]Man(a1-3)[GlcNAc(b1-4)][Neu5Ac(a2-3)Gal(b1-4)GlcNAc(b1-2)[Neu5Ac(a2-3)Gal(b1-4)GlcNAc(b1-6)]Man(a1-6)]Man(b1-4)GlcNAc(b1-4)GlcNAc
# Summary of the method: as §1
# [15] = target: Neu5Ac(a2-3)Gal(b1-4)GlcNAc(b1-2)[Neu5Ac(a2-3)Gal(b1-4)GlcNAc(b1-4)]Man(a1-3)[GlcNAc(b1-4)][Neu5Ac(a2-3)Gal(b1-4)GlcNAc(b1-4)Man(a1-6)]Man(b1-4)GlcNAc(b1-4)GlcNAc
# Summary of the method: as §1
# [16] = target: Neu5Ac(a2-3)Gal(b1-4)GlcNAc(b1-2)[Neu5Ac(a2-3)Gal(b1-4)GlcNAc(b1-6)]Man(a1-6)[Neu5Ac(a2-3)Gal(b1-4)GlcNAc(b1-2)Man(a1-3)]Man(b1-4)GlcNAc(b1-4)GlcNAc
# Summary of the method: as §1
# [17] = target: Neu5Ac(a2-3)Gal(b1-4)GlcNAc(b1-2)[Neu5Ac(a2-3)Gal(b1-4)GlcNAc(b1-6)]Man(a1-6)[Neu5Ac(a2-3)Gal(b1-4)GlcNAc(b1-2)Man(a1-3)][GlcNAc(b1-4)]Man(b1-4)GlcNAc(b1-4)GlcNAc
# Summary of the method: as §1
# [18] = target: Neu5Ac(a2-3)Gal(b1-4)GlcNAc(b1-3)Gal
# Summary of the method: as §1
# [19] = target: Neu5Ac(a2-3)Gal(b1-4)GlcNAc(b1-3)Gal(b1-3)GlcNAc
# Summary of the method: as §1
# [20] = target: Neu5Ac(a2-3)Gal(b1-4)GlcNAc(b1-3)Gal(b1-4)GlcNAc
# Summary of the method: as §1
# [21] = target: Neu5Ac(a2-3)Gal(b1-4)GlcNAc(b1-3)Gal(b1-4)GlcNAc(b1-2)Man(a1-3)[Neu5Ac(a2-3)Gal(b1-4)GlcNAc(b1-3)Gal(b1-4)GlcNAc(b1-2)Man(a1-6)]Man(b1-4)GlcNAc(b1-4)GlcNAc
# Summary of the method: as §1
# [22] = target: Neu5Ac(a2-3)Gal(b1-4)GlcNAc(b1-3)Gal(b1-4)GlcNAc(b1-3)Gal(b1-4)GlcNAc
# Summary of the method: as §1
# [23] = target: Neu5Ac(a2-3)Gal(b1-4)GlcNAc(b1-3)Gal(b1-4)GlcNAc(b1-3)Gal(b1-4)GlcNAc(b1-2)Man(a1-3)[Neu5Ac(a2-3)Gal(b1-4)GlcNAc(b1-3)Gal(b1-4)GlcNAc(b1-3)Gal(b1-4)GlcNAc(b1-2)Man(a1-6)]GalNAc
# Summary of the method: as §1
# [24] = target: Neu5Ac(a2-3)Gal(b1-4)GlcNAc(b1-3)Gal(b1-4)GlcNAc(b1-3)GalNAc
# Summary of the method: as §1
# [25] = target: Neu5Ac(a2-3)Gal(b1-4)GlcNAc(b1-3)Gal(b1-4)GlcNAc(b1-3)[Neu5Ac(a2-3)Gal(b1-4)GlcNAc(b1-3)Gal(b1-4)GlcNAc(b1-6)]GalNAc
# Summary of the method: as §1
# [26] = target: Neu5Ac(a2-3)Gal(b1-4)GlcNAc(b1-3)Gal(b1-4)GlcNAc(b1-6)[Gal(b1-3)]GalNAc
# Summary of the method: as §1
# [27] = target: Neu5Ac(a2-3)Gal(b1-4)GlcNAc(b1-3)Gal(b1-4)[Fuc(a1-3)]GlcNAc
# Summary of the method: as §1
# [28] = target: Neu5Ac(a2-3)Gal(b1-4)GlcNAc(b1-3)GalNAc
# Summary of the method: as §1
# [29] = target: Neu5Ac(a2-3)Gal(b1-4)GlcNAc(b1-3)[Neu5Ac(a2-3)Gal(b1-4)GlcNAc(b1-6)]GalNAc
# Summary of the method: as §1
binder,measurement,setting,value
B1,glycan array binding signal (z-score),[1],1.6
same,glycan array binding signal (z-score),[2],0.245
same,glycan array binding signal (z-score),[3],0.511
same,glycan array binding signal (z-score),[4],0.032
same,glycan array binding signal (z-score),[5],-0.438
same,glycan array binding signal (z-score),[6],1.65
same,glycan array binding signal (z-score),[7],2.57
same,glycan array binding signal (z-score),Neu5Ac(a2-3)Gal(b1-4)Glc,-0.058
same,glycan array binding signal (z-score),[8],-1.67
same,glycan array binding signal (z-score),[9],-0.75
same,glycan array binding signal (z-score),[10],0.268
same,glycan array binding signal (z-score),[11],-0.687
same,glycan array binding signal (z-score),[12],-1.2
same,glycan array binding signal (z-score),[13],-0.682
same,glycan array binding signal (z-score),[14],0.008
same,glycan array binding signal (z-score),[15],-0.2
same,glycan array binding signal (z-score),[16],-0.485
same,glycan array binding signal (z-score),[17],-0.436
same,glycan array binding signal (z-score),[18],-0.672
same,glycan array binding signal (z-score),[19],-0.14
same,glycan array binding signal (z-score),[20],-1.14
same,glycan array binding signal (z-score),[21],0.678
same,glycan array binding signal (z-score),[22],1.87
same,glycan array binding signal (z-score),[23],3.17
same,glycan array binding signal (z-score),[24],-0.775
same,glycan array binding signal (z-score),[25],0.591
same,glycan array binding signal (z-score),[26],0.031
same,glycan array binding signal (z-score),[27],-0.652
same,glycan array binding signal (z-score),[28],0.368
same,glycan array binding signal (z-score),[29],-0.404

# Reprinted at random: two entries already listed.
binder,measurement,setting,value
B1,glycan array binding signal (z-score),Neu5Ac(a2-3)Gal(b1-4)Glc,-0.058
same,glycan array binding signal (z-score),[24],-0.775

# — the supplement of paper PMC8728848
